The other results are listed elsewhere or left out. Further columns of the screen follow, without active or inactive calls. Most of these compounds were active or inconclusive in the main read-out, so they are no random draw. The note in brackets gives the kind of curve behind each potency; many fits are weak.

This experiment can be described thus: qHTS Assay for Lipid Storage Modulators in Drosophila S3 Cells.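 For cell number change: cells counted by Cell Tracker Red CMTPX staining in the red channel.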 To be noted: BODIPY lipid droplet fluorescence, 18-24 h; for cell number change: measured here: cell count max response, cells fed with added oleic acid. An outline of the steps:
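Laser-scanning cytometry quantifies lipid droplet accumulation (500–530 nm total intensity; droplet/cell object ratio) in oleic acid-fed (400 uM added) Drosophila S3 cells treated with a concentration series. 20 uM Triacsin C defined 100% inhibition.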

Setting [1] is: measured here: lipid fluorescence (Fed channel) AC50, cells fed with added oleic acid.
Where [2] appears, read: measured here: cell number channel AC50, cells fed with added oleic acid.

On to `CN(c1ccc(OC(=O)CN2C(=O)NC3(CCCC3)C2=O)cc1)S(=O)(=O)c1ccccc1`, for which the cell number change was -3.05%. Moreover, under setting [1], the AC50 (as a rule, the concentration at which the activity in the assay is half-maximal) is 25.9 µM [falling, single point].
`CC(=O)c1ccc(OCC(=O)OCC(=O)Nc2sccc2C(N)=O)cc1`: the AC50 under setting [1] is 3.26 µM [falling, partial curve].
For `CCOc1ccc(NC(=O)C2CCCCN2S(=O)(=O)c2ccccc2)cc1` (stereo unspecified), the AC50 by setting is: under setting [2], 0.731 µM [rising, full curve, poor fit]; under setting [1], 23.1 µM [rising, partial curve].
In the case of `CCCc1cc(C(=O)OC)c(NC(=O)CCCC(=O)O)s1`, the cell number change came to 15.4%.
Take `COc1ccccc1-c1nc(SC)n[nH]1`: the cell number change was 21.5%.
As for `Nc1nc(=S)[nH]c2c1C1(CCCCC1)Cc1ccccc1-2`, the cell number change worked out at 2.54%. In addition, the AC50 under setting [2] is 6.51 µM [rising, single point].
Consider `COc1ccc(-c2ccc(SCC(=O)c3ccccc3)nn2)cc1OC`, for which the AC50 under setting [2] is 0.082 µM [rising, single point].
As to `CCOC(=O)[C@H]1[C@H]2COc3cc(OC)ccc3[C@@H]2N2C(=O)c3cc(C)ccc3NC(=O)[C@@]12C`, the cell number change is -13.8%. Under setting [1], the concentration at half-maximal activity (AC50) is 0.116 µM [falling, full curve, poor fit].
As for `O=C(Cc1ccc(O)cc1)NCCNC(=S)NCc1ccccc1`, the cell number change was -16.5%. The AC50 under setting [1] was 16.4 µM [falling, single point].
With `CCc1nnc(NC(=O)CN2CCN(Cc3ccccc3Cl)CC2)s1`, the cell number change was determined as 4.97%. Moreover, under setting [1], the AC50 was 6.51 µM [rising, single point].
As to `CNC(=S)N1CCc2ccccc2C1`, the cell number change turned out to be 8.48%. The half-maximal activity concentration (AC50) under setting [1] was 0.092 µM [rising, full curve].
Regarding `CC1NC(=O)N(C)C2NC(=O)N(C)C(c3ccccc3)C12` (stereo unspecified), the cell number change is -2.48%.
For `COc1ccc(NC(=O)COC(=O)c2ccc(-n3cnnn3)cc2)cc1Cl`, the cell number change is -10.9%. For the same compound, under setting [1], the AC50 was 0.731 µM [falling, single point].
For the compound `Cc1nc2ccc(S(=O)(=O)Nc3cccc(-c4nc5cccnc5s4)c3)cc2s1`, the cell number change is -32.1%. The AC50 under setting [2] was 0.326 µM [falling, full curve, poor fit]. Further, under setting [1], the AC50 is 0.82 µM [falling, partial curve, poor fit].
On to `Nc1cc(C(=O)O)ccc1Nc1ccc(F)c(F)c1`, for which the cell number change is -177%. The half-maximal activity concentration (AC50) under setting [2] was 20.6 µM [falling, partial curve].
Consider `CCCCS(=O)(=O)/C=C\C=C/S(=O)(=O)CCCC`, for which the cell number change is -55.1%. Also, under setting [2], the concentration at half-maximal activity (AC50) is 32.6 µM [falling, single point].
For `Cc1ccc(-c2nc(C#N)c(NCc3ccco3)o2)cc1`, the cell number change is -23.2%. Moreover, under setting [1], the AC50 is 1.16 µM [rising, partial curve].
Take `O=C(O)/C=C/C(=O)NCC1CCC(CNC(=O)/C=C/C(=O)O)CC1` (stereo unspecified): the cell number change is -24.1%. Also, under setting [1], the AC50 is 2.31 µM [falling, full curve, poor fit].
For `CCCn1nnc(NC(=O)c2ccc(-c3cccc(Cl)c3)o2)n1`, the cell number change was -15.7%. Further, the AC50 under setting [1] is 0.164 µM [falling, full curve, poor fit].
Turning to `Cn1c(=O)c2c(nc(CN3CCN(c4ccccc4)CC3)n2CCN2CCOCC2)n(C)c1=O`, the cell number change worked out at 35.8%. Moreover, the AC50 under setting [2] is 7.31 µM [rising, partial curve]. Further, the AC50 under setting [1] is 10.3 µM [rising, partial curve].
With `CC(NCC(=O)Nc1ccccc1C(=O)NC1CC1)c1ccccc1Cl` (stereo unspecified), the cell number change was -4.5%. Besides, under setting [2], the half-maximal activity concentration (AC50) is 7.31 µM [falling, single point]. Besides, under setting [1], the AC50 was 6.51 µM [falling, single point].
Regarding `COc1cc(C(=S)NC2CCCCC2)ccc1O`, the cell number change was 24.9%. Further, the AC50 under setting [2] is 0.164 µM [rising, full curve, poor fit]. For the same compound, the concentration at half-maximal activity (AC50) under setting [1] is 0.164 µM [rising, full curve, poor fit].
In the case of `Cc1cccc(Cn2nc(-n3cccc3)c3c(C)cc(C)nc32)c1`, the cell number change was found to be 14.7%.
With `CN(CC(=O)Nc1ccccc1C(F)(F)F)C(=O)CSCc1ccc(Cl)c(Cl)c1`, the AC50 under setting [1] is 2.91 µM [rising, single point].
Consider `COc1ccc(CC(=O)OC(C)C(=O)NC2CCCCC2C)cc1` (stereo unspecified), for which the cell number change was -12%.
Turning to `N#Cc1ccc(C(=O)N2CCN(c3ncccn3)CC2)cc1`, the cell number change amounted to 20.6%. Under setting [1], the AC50 is 5.8 µM [rising, partial curve].
With `N#CCCN(C(=O)Nc1ccc(Cl)c(Cl)c1)c1ccccc1`, the cell number change is 30%. The AC50 under setting [2] was 8.2 µM [rising, partial curve]. Under setting [1], the AC50 is 10.3 µM [rising, partial curve].
As for `COC(=O)[C@@H](c1ccccc1)N(C)S(=O)(=O)c1cccc(S(=O)(=O)N(C)[C@@H](C(=O)OC)c2ccccc2)c1`, the cell number change worked out at 140%. The AC50 under setting [2] was 29.1 µM [rising, single point]. For the same compound, the AC50 under setting [1] was 29.1 µM [rising, partial curve].
In the case of `O=c1cc(-c2ccc(O)c(O)c2)oc2cc(O)cc(O)c12`, the AC50 under setting [1] was 1.84 µM [falling, partial curve].
In the case of `N#C/C(=C/c1ccco1)c1nc2ccccc2s1`, the cell number change came to 6.5%. For the same compound, under setting [1], the AC50 is 4.11 µM [falling, full curve, poor fit].
Regarding `COC(=O)c1ccccc1NC(=O)CNC(=O)c1ccc(OC)cc1`, the cell number change came to 86.6%. The AC50 under setting [2] is 14.6 µM [rising, partial curve].
For `Oc1c(C=NCc2ccc(F)cc2)[nH]c2ccc(Br)c(Cl)c12`, the cell number change worked out at 39.1%. Besides, the AC50 under setting [2] is 20.6 µM [rising, single point]. Further, the AC50 under setting [1] is 29.1 µM [rising, single point].
As to `COc1ccc(N=c2oc3cc(O)ccc3cc2C(=O)Nc2ccccn2)cc1OC`, the cell number change is -34.4%. The AC50 under setting [2] is 0.58 µM [falling, full curve, poor fit]. Under setting [1], the concentration at half-maximal activity (AC50) is 29.1 µM [falling, single point].
`Cc1nc2cc(CO)ccc2n1C`: the cell number change was -113%. In addition, the AC50 under setting [2] was 32.6 µM [falling, partial curve]. For the same compound, under setting [1], the AC50 is 18.4 µM [falling, single point].
For `Cc1ccc(OCCn2ncc3ccccc3c2=O)c(C)c1`, the cell number change is -2.78%. Further, the AC50 under setting [1] was 29.1 µM [rising, single point].
For the compound `COc1ccc(C(=O)NC(=S)Nc2ccc(CN3CCOCC3)cc2)cc1Cl`, the cell number change is -6.19%. Also, under setting [1], the AC50 was 6.51 µM [falling, single point].
As for `CSc1nnc(-c2ccc([N+](=O)[O-])cc2)o1`, the cell number change was 33.3%. Under setting [2], the AC50 is 0.00411 µM [rising, full curve, poor fit]. The AC50 under setting [1] is 6.51 µM [rising, single point].
Regarding `Cc1cccc2cc(C#N)c(NCc3ccccc3)nc12`, the AC50 under setting [2] is 2.06 µM [rising, single point] and the AC50 under setting [1] is 2.06 µM [rising, single point].
On to `COC(=O)c1ccc(SC)cn1`, for which the cell number change was -27.6%. In addition, the AC50 under setting [1] is 0.0058 µM [falling, full curve].
Take `O=C1CCCN1C(=O)COc1cc(F)ccc1[N+](=O)[O-]`: the cell number change is -3.11%. The AC50 under setting [1] was 4.11 µM [rising, single point].
On to `CCOCCCNC(=O)CN1C(=O)COc2ccc(S(=O)(=O)N3CCCC3)cc21`, for which, under setting [2], the AC50 was 0.58 µM [rising, partial curve].
Regarding `COc1ccc(Br)c(C(=O)NC2CCCC2)c1`, the cell number change is -15.6%. Also, the AC50 under setting [1] is 9.2 µM [falling, partial curve, poor fit].
Consider `CCCN(CCC)C(=O)CP(=O)(c1ccccc1)c1ccccc1`, for which the cell number change was -24.7%. Further, the AC50 under setting [2] was 0.13 µM [falling, full curve, poor fit]. Also, the AC50 under setting [1] was 0.13 µM [falling, full curve, poor fit].
As to `CCCn1cc(CN2CCCC(CNC(=O)c3ccc(F)cc3)C2)c(C)n1` (stereo unspecified), the cell number change is -0.409%. Under setting [1], the concentration at half-maximal activity (AC50) is 6.51 µM [falling, single point].
As to `c1ccc(CC2CCN(C(c3cccs3)c3nnnn3C3CCCC3)CC2)cc1` (stereo unspecified), the AC50 under setting [2] is 0.092 µM [rising, full curve, poor fit].
Consider `CSc1ccc(S(=O)(=O)Nc2ccc(NC(C)=O)cc2)cc1`, for which the cell number change is -3.92%. The AC50 under setting [1] was 10.3 µM [rising, single point].
For `Cc1nn(CC(=O)c2ccccc2)c(=O)c2nn(-c3ccccc3F)c(C)c12`, the cell number change came to 5.2%.
For the compound `COc1ccc(CCNCC(O)Cn2c3ccccc3c3ccccc32)cc1OC` (stereo unspecified), the cell number change is -31%. Moreover, under setting [1], the concentration at half-maximal activity (AC50) is 29.1 µM [falling, single point].
On to `Cc1ccccc1S(=O)(=O)NC1OC(=O)C(Cl)=C1Cl` (stereo unspecified), for which the cell number change was -24.2%. In addition, the concentration at half-maximal activity (AC50) under setting [1] was 0.116 µM [falling, full curve, poor fit].
`COc1ccc(-n2nc(C(=O)NCC(=O)NCC3CCCO3)c3ccccc3c2=O)cc1` (stereo unspecified): the half-maximal activity concentration (AC50) under setting [2] is 0.164 µM [rising, full curve, poor fit].
In the case of `C=CCn1c(N)c(C(=O)OC(C)(C)C)c2nc3ccccc3nc21`, the cell number change is 38.8%. In addition, the AC50 under setting [2] was 29.1 µM [rising, single point]. The concentration at half-maximal activity (AC50) under setting [1] was 0.58 µM [rising, full curve, poor fit].
`COc1cc(NC(=O)c2ccco2)c(OC)cc1NC(=O)CCC(=O)Nc1cc(C)cc(C)c1`: the cell number change was determined as 15.5%. Also, under setting [1], the AC50 is 23.1 µM [rising, partial curve].
Consider `CC12CCC(=O)N1C(C(=O)NCc1ccccc1Cl)CS2` (stereo unspecified), for which the cell number change came out at 5.89%. In addition, the AC50 under setting [1] was 29.1 µM [rising, single point].
Take `CCc1ccc(/C(C)=N/NC(=O)CNC(=O)/C=C/c2ccccc2OC)cc1`: the cell number change was -6.72%.
`COc1ccc(Cl)cc1NC(=O)CN(C)C(=O)Cc1ccsc1`: the AC50 is, setting by setting: under setting [2], 7.31 µM [rising, single point]; under setting [1], 14.6 µM [falling, partial curve].
For the compound `O=C(Nc1ccc(F)cc1)C(Sc1nnc2ccccn12)c1ccccc1` (stereo unspecified), the AC50 under setting [1] is 16.4 µM [rising, single point].
As to `CCn1c2ccccc2c2cc(NC(=O)CSc3nnc(-c4ccc(OC)cc4)n3N)ccc21`, the cell number change was -38.1%. Moreover, the AC50 under setting [2] was 32.6 µM [falling, partial curve, poor fit]. The AC50 under setting [1] was 0.058 µM [falling, full curve, poor fit].
`O=C(CN1CCN(CC(=O)Nc2ccccc2Cl)CC1)Nc1ccc(F)c(F)c1`: the cell number change was -6.31%.
For `CCCCCn1c(SCC(=O)OC)nc2c1c(=O)[nH]c(=O)n2C`, the cell number change was -40.2%. Further, under setting [2], the AC50 is 2.31 µM [falling, partial curve, poor fit]. Also, the AC50 under setting [1] was 0.366 µM [rising, full curve].

Source of the values: PubChem BioAssay AID2685 (National Center for Advancing Translational Sciences (NCATS), 2010).
